# These are yes or no findings as the source states them, for the method shown. In cells and extracts the contact can be indirect. Some entries that bind do so weakly or less than the wild type.
# By UniProt entry, the sequences of proteins in these tests, tags left out.
# UniProt P25963: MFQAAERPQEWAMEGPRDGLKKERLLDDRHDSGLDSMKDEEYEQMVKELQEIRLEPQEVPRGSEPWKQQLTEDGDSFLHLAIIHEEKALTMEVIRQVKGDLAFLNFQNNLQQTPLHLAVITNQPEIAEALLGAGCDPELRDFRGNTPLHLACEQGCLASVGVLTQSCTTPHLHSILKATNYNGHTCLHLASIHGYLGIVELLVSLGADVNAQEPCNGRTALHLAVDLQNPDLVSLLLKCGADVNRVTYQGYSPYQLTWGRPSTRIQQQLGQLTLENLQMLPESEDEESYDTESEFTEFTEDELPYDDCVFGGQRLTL
# Biological target: T1, TRIM64 (human) (UniProt A6NGJ6)
# T1 sequence: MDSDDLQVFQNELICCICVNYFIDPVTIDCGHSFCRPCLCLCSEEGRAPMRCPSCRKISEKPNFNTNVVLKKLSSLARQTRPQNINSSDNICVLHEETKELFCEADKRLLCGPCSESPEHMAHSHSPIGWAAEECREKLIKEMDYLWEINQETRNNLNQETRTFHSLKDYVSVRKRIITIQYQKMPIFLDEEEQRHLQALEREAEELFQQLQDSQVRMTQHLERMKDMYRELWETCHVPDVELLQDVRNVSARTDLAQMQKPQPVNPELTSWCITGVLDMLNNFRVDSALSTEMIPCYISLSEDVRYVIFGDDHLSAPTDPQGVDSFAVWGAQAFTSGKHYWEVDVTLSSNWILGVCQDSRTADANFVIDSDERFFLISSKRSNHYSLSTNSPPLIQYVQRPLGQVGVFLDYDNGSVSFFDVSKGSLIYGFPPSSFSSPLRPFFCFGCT
# Assay: co-IP; cell lysates in RIPA buffer (1 mM MgCl2, 100 mM NaCl, 1 mM DTT); antibodies against IκBα, TRIM64 or control IgG with protein A/G magnetic beads, 120 min at 4 °C; immunoblot
substance,measurement,value
IκBα (from UniProt P25963 1-317),binding,binds
